Changes are numbered by the printed parent chain. Names and notes keep the numbering of the source. These are yes or no findings as the source states them, for the method shown. Some binding calls cover weakened binding; strength is not graded here.
B1: wild type mouse MLKL (mixed lineage kinase domain-like) (protein, UniProt Q9D2Y4 1-472)
chain: MDKLGQIIKLGQLIYEQCEKMKYCRKQCQRLGNRVHGLLQPLQRLQAQGKKNLPDDITAALGRFDEVLKEANQQIEKFSKKSHIWKFVSVGNDKILFHEVNEKLRDVWEELLLLLQVYHWNTVSDVSQPASWQQEDRQDAEEDGNENMKVILMQLQISVEEINKTLKQCSLKPTQEIPQDLQIKEIPKEHLGPPWTKLKTSKMSTIYRGEYHRSPVTIKVFNNPQAESVGIVRFTFNDEIKTMKKFDSPNILRIFGICIDQTVKPPEFSIVMEYCELGTLRELLDREKDLTMSVRSLLVLRAARGLYRLHHSETLHRNISSSSFLVAGGYQVKLAGFELSKTQNSISRTAKSTKAERSSSTIYVSPERLKNPFCLYDIKAEIYSFGIVLWEIATGKIPFEGCDSKKIRELVAEDKKQEPVGQDCPELLREIINECRAHEPSQRPSVDGRSLSGRERILERLSAVEESTDKKV
B2: R105A/D106A mutant mouse MLKL (protein, UniProt Q9D2Y4 1-472)
chain: B1 chain with R105A, D106A

Experiments:
[1] = molecular target: wild type mouse MLKL (mixed lineage kinase domain-like) (mouse) (UniProt Q9D2Y4); assay: native gel or EMSA
[2] = molecular target: R105A/D106A mutant mouse MLKL (mouse) (UniProt Q9D2Y4); assay: native gel or EMSA

Binder | binding [1] | binding [2]
B1 | binds | –
B2 | – | no binding
